The results in this text go back to the supplement of paper PMC10735217.

Counter-ions that a name gives are not always drawn. Some of the results follow. This data set is noisy: repeats of one test often differ as much as different tests do.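 Human kidney-derived cells stably carry a construct in which eight TEAD-binding elements drive luciferase, measured by luminescence in a drug-repurposing library screen. A hit is any compound whose signal exceeds the plate mean by more than five robust Z scores.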

For this test, the system named is HEK293A TEAD-LUC reporter. Description: TEAD-luciferase reporter activity (YAP activation), robust Z score vs plate; higher = stronger YAP/TEAD activation. As to conditions: 24 h. (In a reporter assay the amount or activity of a reporter protein is the signal.)

Regarding `CNC1CCc2[nH]c3ccc(C(N)=O)cc3c2C1` (stereo unspecified), the TEAD-luciferase reporter activity runs as follows: (compound concentration: 200 nM) inactive: -0.548; (compound concentration: 2 uM) inactive: -0.322; (compound concentration: 10 uM) inactive: -0.41.
In the case of `C[C@@H](Nc1cc(NS(=O)(=O)N2CCC2)nc(SCc2cccc(F)c2F)n1)[C@@H](O)CO`, the TEAD-luciferase reporter activity by setting is: (compound concentration: 200 nM) inactive: -0.832; (compound concentration: 2 uM) inactive: -0.587; (compound concentration: 10 uM) inactive: -0.575.
In the same order, the values of `CC[C@@H]1SC2(CCN(C)CC2)NC1=O` are inactive: -0.702, inactive: 0.744 and inactive: -1.66.
In the same order, the values of `CC[N+](CC)(CCNC(=O)C(=O)NCC[N+](CC)(CC)Cc1ccccc1Cl)Cc1ccccc1Cl` are inactive: 1.84, inactive: -2.1 and inactive: 2.86.
In the same order, the values of `Cn1ncc2cc(-c3cc(CCC(=O)O)cc(N)c3OC3Cc4ccccc4C3)ccc21` are inactive: 1.98, inactive: -1.41 and inactive: -0.0274.
`COc1ccc(CS(=O)c2ncccc2C(=O)Nc2cc(C)ncc2C)c(OC)c1` (stereo unspecified): the TEAD-luciferase reporter activity was inactive: 0.494 (compound concentration: 200 nM), inactive: 0.264 (compound concentration: 2 uM) and inactive: 0.224 (compound concentration: 10 uM).
For the compound `CN1CCC(OC(c2ccccc2)c2ccccc2)CC1` [4-Diphenylmethoxy-1-methylpiperidine hydrochloride], the TEAD-luciferase reporter activity is, setting by setting: (compound concentration: 200 nM) inactive: -1.84; (compound concentration: 10 uM) inactive: 1.35.
For `CN1CCC(OC(c2ccccc2)c2ccccc2)CC1` [Diphenylpyraline hydrochloride], where the note is “compound concentration: 2 uM”, the TEAD-luciferase reporter activity is inactive: 0.836.
For the compound `Cc1ccc(CN(C)C2CCc3ccccc32)cc1` (stereo unspecified), the TEAD-luciferase reporter activity is, setting by setting: (compound concentration: 200 nM) inactive: 1.03; (compound concentration: 10 uM) inactive: 2.93.
In the case of `CCCCC(=O)N(Cc1ccc(-c2ccccc2-c2nnn[nH]2)cc1)C(C(=O)O)C(C)C` (stereo unspecified) [valsartan], the TEAD-luciferase reporter activity (compound concentration: 200 nM) is inactive: -3.32, the TEAD-luciferase reporter activity (compound concentration: 2 uM) was inactive: -1.32 and the TEAD-luciferase reporter activity (compound concentration: 10 uM) was inactive: 1.12.
In the case of `c1cnc(N2CCN(Cc3ccc4c(c3)OCO4)CC2)nc1` [piribedil], where the note is “compound concentration: 2 uM”, the TEAD-luciferase reporter activity was inactive: -0.0931.
Regarding `c1cnc(N2CCN(Cc3ccc4c(c3)OCO4)CC2)nc1` [Piribedil], the TEAD-luciferase reporter activity (compound concentration: 200 nM) is inactive: -3.25 and the TEAD-luciferase reporter activity (compound concentration: 10 uM) was inactive: -0.428.
In the case of `O=C1N(c2ccccc2)c2ccccc2C1(Cc1ccncc1)Cc1ccncc1` [Linopirdine], the TEAD-luciferase reporter activity (compound concentration: 2 uM) was inactive: -1.25.
Consider `O=C1N(c2ccccc2)c2ccccc2C1(Cc1ccncc1)Cc1ccncc1`, for which the TEAD-luciferase reporter activity runs as follows: (compound concentration: 200 nM) inactive: -0.771; (compound concentration: 10 uM) inactive: -0.505.
`CN(C)CCCN1c2ccccc2Sc2ccccc21` [Promazine]: the TEAD-luciferase reporter activity (compound concentration: 2 uM) was inactive: -2.05.
Regarding `CN(C)CCCN1c2ccccc2Sc2ccccc21`, the TEAD-luciferase reporter activity by setting is: (compound concentration: 200 nM) inactive: -0.189; (compound concentration: 10 uM) inactive: 1.77.
As for `CCCSc1nc(N[C@@H]2C[C@H]2c2ccc(F)c(F)c2)c2nnn([C@@H]3C[C@H](OCCO)[C@@H](O)[C@H]3O)c2n1` [Ticagrelor], the TEAD-luciferase reporter activity is inactive: 0.251 (compound concentration: 200 nM), inactive: -1.39 (compound concentration: 2 uM) and inactive: -0.604 (compound concentration: 10 uM).
In the same order, the values of `CC(C)(CO)NCc1ccc(OCCO)cc1` are inactive: 1.23, inactive: 0.892 and inactive: -0.148.
Take `CCN(C/C=C\c1ccc(C2CCCCC2)c(Cl)c1)C1CCCCC1`: the TEAD-luciferase reporter activity was inactive: -1.44 (compound concentration: 200 nM), inactive: -0.51 (compound concentration: 2 uM) and inactive: -1.09 (compound concentration: 10 uM).
Take `CCCCCCCCCCCCCCOP(=O)([O-])O[C@H](CC(=O)O)C[N+](C)(C)C`: the TEAD-luciferase reporter activity (compound concentration: 10 uM) is inactive: 2.58.
As for `CC(=O)N[C@H]1[C@H]([C@H](O)[C@H](O)CO)O[C@](O)(C(=O)O)C[C@@H]1O` [aceneuramic acid], the TEAD-luciferase reporter activity reads like this: (compound concentration: 200 nM) inactive: -1.11; (compound concentration: 2 uM) active: 5.01; (compound concentration: 10 uM) inactive: -0.0594.
As to `CCCNc1nc(NC)nc2cc(-n3ccc(CCC(=O)NCCN4CCCCC4)c3)ccc12`, the TEAD-luciferase reporter activity (compound concentration: 200 nM) is inactive: -1.34, the TEAD-luciferase reporter activity (compound concentration: 2 uM) is inactive: -0.581 and the TEAD-luciferase reporter activity (compound concentration: 10 uM) is inactive: 1.21.
The corresponding values for `CCOC(=O)c1cnc(Nc2ccc(OC)cc2)[nH]c1=O` are inactive: -1.93, inactive: 1.65 and inactive: 3.37.
In the same order, the values of `N=C1NCCC(C2NC(=O)/C(=C/NC(N)=O)NC(=O)C(CNC(=O)CC(N)CCCN)NC(=O)C(CO)NC(=O)C(N)CNC2=O)N1` (stereo unspecified) are active: 5.14, inactive: -1.54 and inactive: 1.35.
The corresponding values for `CCN(CC)CCOC(=O)[C@H](Cc1ccc(NC(=O)c2c(Cl)cccc2Cl)cc1)NC(=O)c1c(C)cccc1Cl` [valategrast hydrochloride] are inactive: -1.65, inactive: -0.106 and inactive: 0.185.
As for `CCN(CC)CCOC(=O)[C@H](Cc1ccc(NC(=O)c2c(Cl)cccc2Cl)cc1)NC(=O)c1c(C)cccc1Cl` [Valategrast hydrochloride], the TEAD-luciferase reporter activity (compound concentration: 2 uM) is inactive: -1.12.
As to `COCC(=O)O[C@]1(CCN(C)CCCc2nc3ccccc3[nH]2)CCc2cc(F)ccc2[C@@H]1C(C)C` [mibefradil dihydrochloride], the TEAD-luciferase reporter activity was inactive: -0.257 (compound concentration: 200 nM), inactive: -0.353 (compound concentration: 2 uM) and inactive: 0.474 (compound concentration: 10 uM).
With `COCC(=O)O[C@]1(CCN(C)CCCc2nc3ccccc3[nH]2)CCc2cc(F)ccc2[C@@H]1C(C)C` [mibefradil dihydrochloride,Tau], the TEAD-luciferase reporter activity (compound concentration: 2 uM) is inactive: -0.875.
For the compound `Cc1cc(C)nc(N2CC3CN(C(=O)c4c(F)cccc4-n4ccnn4)CC3C2)n1` (stereo unspecified), the TEAD-luciferase reporter activity is inactive: -0.431 (compound concentration: 200 nM), inactive: 1.57 (compound concentration: 2 uM) and inactive: 0.335 (compound concentration: 10 uM).
In the case of `OCCN1CCN(CCCN2c3ccccc3Sc3cc(Cl)cnc32)CC1`, the TEAD-luciferase reporter activity runs as follows: (compound concentration: 200 nM) inactive: -1.36; (compound concentration: 2 uM) inactive: -1.19; (compound concentration: 10 uM) inactive: 0.733.
The corresponding values for `C[C@@H]1C[C@H]2[C@@H]3CCC4=CC(=O)C=C[C@]4(C)[C@@]3(Cl)[C@@H](O)C[C@]2(C)[C@@]1(O)C(=O)CCl` are inactive: 0.995, inactive: 0.00246 and inactive: 4.31.
Consider `CCN(CC)CC(C)(C)COC(=O)c1ccc(N)cc1`, for which the TEAD-luciferase reporter activity by setting is: (compound concentration: 200 nM) inactive: -0.593; (compound concentration: 2 uM) inactive: 0.0519; (compound concentration: 10 uM) inactive: -1.34.
In the same order, the values of `CO[C@H]1/C=C\C=C(/C)C(=O)NC2=CC(=O)C(NCCN(C)C)=C(C[C@@H](C)C[C@H](OC)[C@H](O)[C@@H](C)/C=C(\C)[C@@H]1OC(N)=O)C2=O` [Alvespimycin hydrochloride] are inactive: -3.05, inactive: -0.51 and inactive: -1.67.
In the same order, the values of `CCN1CCN(C(=O)C2CCN(Cc3cc4ccccc4[nH]3)CC2)CC1` are inactive: 2.47, inactive: -0.606 and inactive: 0.677.
In the same order, the values of `CO/N=C(\C(=O)N[C@@H]1C(=O)N2C(C(=O)O)=C(C)CS[C@H]12)c1csc(N)n1` [Cefetamet sodium] are inactive: -0.989, inactive: -0.933 and inactive: -2.14.
